Results: PubChem BioAssay AID1347076 (National Center for Advancing Translational Sciences (NCATS), 2019)
Out of some 400,000 compounds screened, about 13,000 (3.2%) were called active. The inconclusive results got no clear call from the source; some entries with a clear call stand among them for comparison. The call rests on the fitted dose curve; in most records, active means well fitted cell-killing curve with a large enough effect; inconclusive means small, poorly fitted or top-dose-only effect, or effect the other way; inactive means flat fitted curve, though single readings scatter. A potency beside an inconclusive call is a rough fit, not a confirmed value.

Experiment: qHTS assay for MDR1-selective chemotherapeutics: Primary screen using the drug-selected MDR subline cells KB-V1; further: nearly all actives have a fitted effect of over 60% in size
Conditions: KB-V1 MDR cells viability, CellTiter-Glo, 72 h; activity change, negative = cytotoxicity: at 46.1 µM (top of the series)
Outline: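 qHTS viability screen in drug-selected KB-V1 MDR cells: 72 h compound treatment at 37 degrees C, ATP luminescence end point.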
On the % scale 0 is the no-effect control and ±100 the full control effect; potency means the concentration at half of the fitted maximal effect.

Structure (SMILES) | Potency | activity change, negative = cytotoxicity
CCCCOC(=O)c1ccc(NC(=O)c2cnc3n(c2=O)CCS3)cc1 | inconclusive: 29.1 µM [cytotoxic, single point] | 
CC(=O)Nc1ccc(C(=O)N2CCOCC2c2cc(C(=O)NCc3ccccc3)no2)cc1 (stereo not given) |  | inactive: 3%
COc1ccc(CCNC(=O)c2ccccc2NC(=O)CN2CCN(c3ccccc3O)CC2)cc1 | inconclusive: 20.6 µM [cytotoxic, single point] | 
COc1ccc(C(=O)NC(C)c2cccnc2)cc1S(=O)(=O)N(C)Cc1ccccc1 (stereo not given) |  | inactive: 25.7%
Cc1cc(NS(=O)(=O)c2ccc(NC(=O)/C=C/c3ccco3)cc2)nc(C)n1 | inconclusive: 23.1 µM [rising, single point] | 
O=c1[nH]nc(SCCS(=O)(=O)c2ccc(F)cc2)n1-c1ccc2c(c1)OCCO2 |  | inactive: 23.8%
COc1ccccc1CNc1cc(CSc2ccc(Cl)cc2)nc(C)n1 | active: 14.6 µM | 
COc1ccc(C(C(=O)NCC2CCCO2)N(Cc2cccs2)C(=O)c2snc(C(N)=O)c2N)cc1 (stereo not given) | inconclusive: 29.1 µM [cytotoxic, single point] | 
CCN(CC)c1ccc(NC(=O)c2cc(Cl)ccc2OC)cc1 | inconclusive: 9.2 µM [cytotoxic, partial curve, poor fit] | 
Oc1ccc(CN2CCCCC2)c2cccnc12 | inconclusive: 18.4 µM [cytotoxic, partial curve] | 
COc1ccccc1NC(=O)CSc1nnc(-c2ccco2)n1Cc1ccco1 | inconclusive: 16.4 µM [cytotoxic, single point] | 
C=CCn1c2ccccc2c2nnc(SCc3[nH]c(=O)[nH]c3C(=O)CCCCC(=O)OCC)nc21 | inconclusive: 23.1 µM [cytotoxic, single point] | 
O=C(/C=C/c1ccc([N+](=O)[O-])cc1)Nc1cccc(S(=O)(=O)NC2=NCCCCC2)c1 | active: 18.4 µM | 
CCOc1ccc(C2=Nc3ccccc3C(c3ccc(N4CCOCC4)cc3)=NN2)cc1 | active: 4.11 µM | 
Cc1cccc(Nc2nc(-c3ccc(F)cc3)cs2)n1 | inconclusive: 11.6 µM [cytotoxic, partial curve, poor fit] | 
Cc1cccc(CS(=O)(=O)Cc2ccc(C(=O)NCc3ccco3)o2)c1 | inconclusive: 16.4 µM [cytotoxic, single point] | 
CCOC(=O)c1c(CN2CCCCC2)oc2ccc(O)cc12 |  | inactive: -3.52%
CC1CC(C)CN(S(=O)(=O)c2ccc(NC(=O)[C@@H]3CCCN3C(=O)c3cccs3)cc2)C1 (stereo not given in full) |  | inactive: 8.01%
C=Cn1cc[n+](CC(=O)c2cc(C(C)(C)C)c(O)c(C(C)(C)C)c2)c1 | inconclusive: 25.9 µM [rising, single point] | 
CC(C)C[C@H]1CN(CCCC[C@H]2CNC(=O)C(=O)N2CCc2ccc(O)cc2)C(=O)C(=O)N1CCc1ccc(O)cc1 | inconclusive: 29.1 µM [rising, single point] | 
COc1ccc(-n2nccc2-c2nn(-c3cccc(OC)c3)c(=O)n(C)c2=O)cc1 | inconclusive: 16.4 µM [cytotoxic, partial curve] | 
O=C(CN1C(=O)NC2(CCCc3ccccc32)C1=O)Nc1cccc(S(=O)(=O)N2CCCCC2)c1 (stereo not given) | inconclusive: 14.6 µM [cytotoxic, partial curve, poor fit] | 

Structure (SMILES) | Potency | activity change, negative = cytotoxicity
COCCOC(=O)C1=C(C)NC2=C(C(=O)CC(c3cccs3)C2)C1c1ccsc1 (stereo not given) | inconclusive: 25.9 µM [cytotoxic, partial curve, poor fit] | 
O=C(Nc1ccc(Br)cc1)c1cccnc1N1CCOCC1 | inconclusive: 16.4 µM [rising, single point] | 
Cc1c(OC(C)C(=O)NCCCN2CCOCC2)ccc2c3c(c(=O)oc12)CCC3 (stereo not given) |  | inconclusive: -10.2%
O=[N+]([O-])c1cc(CN2CCCCCC2)ccc1O | inconclusive: 20.6 µM [rising, single point] | 
CCSc1nnc(NC(=O)Cc2cc(OC)c(OC)c(OC)c2)s1 | inconclusive: 29.1 µM [cytotoxic, single point] | 
O=C(NC(Cc1c[nH]c2ccccc12)C(=O)O)/C(=C\c1ccccc1)NC(=O)c1ccccc1 (stereo not given) | inconclusive: 18.4 µM [rising, single point] | 
O=C(Nc1ccc(OC(F)F)cc1)c1cc[n+]([O-])cc1 |  | inactive: 22.4%
COc1ccc(N2CCN(C(=O)c3ccc(Oc4ccc(C(F)(F)F)cn4)cc3)CC2)cc1 | inconclusive: 5.17 µM [cytotoxic, partial curve, poor fit] | 
CC(C)(C)c1ccc(-n2ncc3c2CCCC3NC(=O)c2ccncc2)cc1 (stereo not given) | inconclusive: 2.06 µM [cytotoxic, full curve] | 
O=C(Cc1cccc(NC(=O)C2CCCN(C(=O)C3CCCCC3)C2)c1)Nc1cccc(C(=O)N2CCCC2)c1 (stereo not given) |  | inactive: 12.7%
CC1(C)CC2CC(C)(CN2S(=O)(=O)c2ccc(C(=O)Nc3cccc(S(=O)(=O)N4CCOCC4)c3)cc2)C1 (stereo not given) | inconclusive: 18.4 µM [cytotoxic, single point] | 
c1ccc(-c2nnc(CN3CCN(c4ccccc4)CC3)o2)cc1 | inconclusive: 10.3 µM [cytotoxic, partial curve, poor fit] | 
O=C1CCc2cc(S(=O)(=O)N3CCN(c4ccccc4F)CC3)ccc2N1 | inconclusive: 20.6 µM [cytotoxic, single point] | 
Cn1c(C(=O)Nc2ccc3c(c2)OCCO3)cc2c(=O)n(C)c3ccccc3c21 | inconclusive: 29.1 µM [cytotoxic, single point] | 
COC(=O)c1ccc(NC(=O)COC(=O)c2cccc3c(=O)c(C)c(-c4ccccc4)oc23)cc1 | inconclusive: 7.31 µM [cytotoxic, partial curve, poor fit] | 
COc1cc(Br)c(C(C)NC(=O)c2cccc(Br)c2)cc1OC (stereo not given) | inconclusive: 18.4 µM [cytotoxic, single point] | 
CC(C)CCC(CCNCc1ccccn1)c1ccc2c(c1)OCO2 (stereo not given) |  | inactive: 0%
CCNC(=O)NC(=O)COC(=O)c1ccccc1SCC(=O)NC(=O)NCC |  | inactive: -3.2%
COc1cc(CC(=O)NCCCc2ccccc2)cc(OC)c1OC | inconclusive: 29.1 µM [cytotoxic, single point] | 
O=C(CSc1nn(-c2ccc(Cl)cc2)c(=S)s1)N1CCN(C(=O)c2ccco2)CC1 | inconclusive: 16.4 µM [cytotoxic, partial curve] | 
CCOC(=O)C1(C)NC(c2ccccc2F)C2C(=O)N(c3cccc(C(C)=O)c3)C(=O)C21 (stereo not given) |  | inactive: -1.53%
O=C(CSc1nccn1-c1ccccc1)NCc1ccc(F)cc1 | inconclusive: 29.1 µM [cytotoxic, single point] | 

Structure (SMILES) | Potency | activity change, negative = cytotoxicity
Cc1ccc(CS(=O)(=O)c2ncc(Cl)c(C(=O)Nc3nnc(C)s3)n2)cc1 | inconclusive: 29.1 µM [cytotoxic, single point] | 
CSc1ncccc1C(=O)OCC(=O)NCc1ccc2c(c1)OCO2 |  | inactive: 3.36%
O=C(COc1nsnc1N1CCOCC1)Nc1cccc(Cl)c1 | inconclusive: 11.6 µM [cytotoxic, partial curve] | 
O=C1C=C(c2ccc(C(=O)O)cc2)C[C@@H](c2ccc(Cl)cc2)C1 |  | inconclusive: 0.695%
Cc1ccccc1CN1CCc2c(OCC(=O)N3CCCc4ccccc43)cccc2C1=O | inconclusive: 29.1 µM [cytotoxic, single point] | 
CC(=O)C1=C(C)NC(C)=C(C(C)=O)C1c1ccc(-c2ccccc2Cl)o1 | inconclusive: 2.31 µM [cytotoxic, partial curve] | 
Cc1cc(OCC(=O)OCC(=O)Nc2ccc(Cl)cn2)ccc1Cl | inconclusive: 29.1 µM [rising, single point] | 
Cc1ccc2cc(CN(CCN(C)C)C(=O)Nc3ccc(Cl)cc3)c(=O)[nH]c2c1 | inconclusive: 23.1 µM [cytotoxic, partial curve] | 
COc1cc([N+](=O)[O-])ccc1NC(=O)CN1CCCC1 |  | inactive: 1.92%
COC(=O)c1ccccc1NC(=O)CSc1nc(-c2ccco2)cc(C(F)(F)F)n1 | inconclusive: 4.11 µM [cytotoxic, full curve, poor fit] | 
O=C(N/N=C/C=C/c1ccc2c(c1)OCO2)C(O)c1ccccc1 (stereo not given) |  | inactive: -4.91%
Cc1ccnc(NC(=O)COc2c(C)cc(C)cc2[N+](=O)[O-])c1 | inconclusive: 16.4 µM [cytotoxic, single point] | 
O=C(Nc1cccc(-c2nnc(-c3ccccc3)o2)c1)c1ccc(Br)o1 | active: 20.6 µM | 
CCN(CC)c1ccc2cc(-c3nc4ccccc4[nH]3)c(=O)oc2c1 | inconclusive: 5.8 µM [cytotoxic, partial curve] | 
COc1cccc(/C=N/NC(=O)CN2CC(c3ccccc3)CC2=O)c1O (stereo not given) | inconclusive: 23.1 µM [cytotoxic, single point] | 
Cc1cccc(NC(=O)c2cccc(OC(=S)N3CCOCC3)c2)c1 | inconclusive: 10.3 µM [cytotoxic, partial curve] | 
Cc1ccc(C2CC(c3ccccc3)=NN2C(=S)Nc2ccccc2)o1 (stereo not given) | active: 5.17 µM | 
CC(=O)N[C@@H](Cc1ccc(OC(F)(F)F)cc1)C(=O)O | inconclusive: 29.1 µM [rising, single point] | 
CCOC(=O)CSc1nc2c(sc(=S)n2-c2ccccc2OC)c(=O)n1-c1ccccc1OC |  | inactive: -9.22%
CN(C(=O)CSc1nnc(-c2n[nH]c3ccccc23)o1)c1ccccc1 | inconclusive: 18.4 µM [cytotoxic, single point] | 
O=C(/C=C/c1ccccc1[N+](=O)[O-])N1CCc2ccccc2C1 | inconclusive: 32.6 µM [cytotoxic, partial curve, poor fit] | 

As entered above.
Potency, `CN(C(=O)CSc1nnc(-c2n[nH]c3ccccc23)o1)c1ccccc1` is entered as inconclusive: 18.4 µM [cytotoxic, single point]
Potency, `Cc1ccc2cc(CN(CCN(C)C)C(=O)Nc3ccc(Cl)cc3)c(=O)[nH]c2c1` is entered as inconclusive: 23.1 µM [cytotoxic, partial curve]
Potency, `CC(=O)C1=C(C)NC(C)=C(C(C)=O)C1c1ccc(-c2ccccc2Cl)o1` is entered as inconclusive: 2.31 µM [cytotoxic, partial curve]
Potency, `O=C(Nc1cccc(-c2nnc(-c3ccccc3)o2)c1)c1ccc(Br)o1` is entered as active: 20.6 µM
Potency, `COC(=O)c1ccccc1NC(=O)CSc1nc(-c2ccco2)cc(C(F)(F)F)n1` is entered as inconclusive: 4.11 µM [cytotoxic, full curve, poor fit]
